# From PubChem BioAssay AID2685 (National Center for Advancing Translational Sciences (NCATS), 2010)
# The list shows a part of the results. The main result of the screen is listed elsewhere. These columns were measured beside it and carry no call. Most of these compounds were active or inconclusive in the main read-out, so they are no random draw. The note in brackets gives the kind of curve behind each potency; many fits are weak.
# Test: qHTS Assay for Lipid Storage Modulators in Drosophila S3 Cells;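 for cell number change: cells counted by Cell Tracker Red CMTPX staining in the red channel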
# Conditions: BODIPY lipid droplet fluorescence, 18-24 h; for cell number change: measured here: cell count max response, cells fed with added oleic acid
# Procedure, shortened: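 Drosophila S3 cells got compounds at several concentrations plus oleic acid (400 uM solution). Laser-scanning cytometry with 488 nm excitation read lipid droplets at 500-530 nm and cells at 575-640 nm. Percent activity was relative to 20 uM Triacsin C.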
# [1] = measured here: lipid fluorescence (Fed channel) AC50, cells fed with added oleic acid
# [2] = measured here: cell number channel AC50, cells fed with added oleic acid
compound,measurement,setting,value
Cc1ccc(CN2CCCN(Cc3c(C)cc(C)cc3C)S2(=O)=O)cc1,cell number change,,18.4%
same,AC50,[1],"0.0164 µM [rising, full curve, poor fit]"
Cc1cc(-c2n[nH]c(=S)n2-c2ccc(C)c(C)c2)no1,cell number change,,1.01%
same,AC50,[2],"1.03 µM [falling, full curve]"
same,AC50,[1],"0.92 µM [falling, full curve]"
CCOc1cc(/C=C2\SC(=N)N(c3nonc3N)C2=O)ccc1OCCN1CCOCC1,cell number change,,-34.4%
same,AC50,[2],"29.1 µM [falling, single point]"
same,AC50,[1],"23.1 µM [falling, single point]"
CCC(C)NC(=O)CO/N=C/c1ccc(C(=O)OC)cc1 (stereo not drawn),cell number change,,47.5%
same,AC50,[2],"5.8 µM [rising, partial curve]"
same,AC50,[1],"5.17 µM [rising, partial curve]"
COC(=O)c1sc(NC(=O)CSc2nc3cccnc3n2C2CCCCC2)nc1C,cell number change,,14.5%
same,AC50,[1],"20.6 µM [rising, single point]"
CCN(CC)S(=O)(=O)c1ccc2c(c1)nc(CCC(=O)Nc1ccccc1Cc1ccccc1)n2CC,cell number change,,-4.23%
same,AC50,[2],"0.92 µM [rising, partial curve]"
same,AC50,[1],"0.651 µM [rising, full curve]"
Cc1cccc(-c2noc(Cc3ccc(Cl)cc3)n2)c1,cell number change,,-7.03%
same,AC50,[1],"2.91 µM [rising, full curve]"
C=C(C)C1Cc2c(C)nn(-c3ccccn3)c2C1 (stereo not drawn),cell number change,,-43.5%
same,AC50,[2],"2.06 µM [falling, partial curve]"
same,AC50,[1],"2.91 µM [falling, single point]"
COc1ccc(C(=O)N/C(=C\c2cccs2)c2nc3ccccc3[nH]2)cc1OC,cell number change,,-20.2%
same,AC50,[1],"16.4 µM [falling, partial curve, poor fit]"
COc1ccc(N2CCN(C(=O)CNC(=O)c3cn(-c4ccccc4OC)c(=O)c4ccccc34)CC2)cc1,cell number change,,10%
same,AC50,[1],"0.164 µM [falling, full curve, poor fit]"
Cc1oncc1-c1csc(-c2ccccc2Cl)n1,cell number change,,17.7%
same,AC50,[1],"0.13 µM [rising, full curve, poor fit]"
O=C(O)CCN1C(=O)c2ccc(NC(=O)c3ccco3)cc2C1=O,cell number change,,-7.32%
CC(=O)c1ccc(O)c(CSC2=NCCS2)c1,AC50,[1],"0.0731 µM [rising, single point]"
COC(=O)CC(=O)CSc1nc(C)cc(C)c1C#N,cell number change,,18%
same,AC50,[1],"29.1 µM [rising, single point]"
N/C(=N\OC(=O)/C=C/c1ccccc1)c1ccccc1,AC50,[2],"0.461 µM [rising, single point]"
Cc1ccc(OCCNCc2ccccc2)c(C)c1,cell number change,,-7.14%
same,AC50,[1],"29.1 µM [rising, single point]"
CC1CCCCC1N(C)C1CCN(C(=O)CNC(=O)/C=C/c2cccc(Cl)c2)CC1 (stereo not drawn),cell number change,,28.3%
same,AC50,[1],"6.51 µM [rising, single point]"
CCOc1ccc(C2/C(=C(\O)c3ccc(OC)c(OC)c3)C(=O)C(=O)N2c2cc(C)on2)cc1OC (stereo not drawn),cell number change,,32.4%
same,AC50,[2],"29.1 µM [rising, single point]"
O=C(O)c1cc(-c2ccc3c(c2)OCO3)nc2ccc(Br)cc12,cell number change,,-36.2%
same,AC50,[2],"0.82 µM [falling, full curve]"
same,AC50,[1],"0.82 µM [falling, full curve]"
CN(CC(=O)Nc1c(Cl)cccc1Cl)C(=O)c1cc(-c2cccs2)nn1-c1ccccc1,cell number change,,31.7%
O=C1CCC(=O)N1c1ccc(NC2CCN(Cc3ccccc3)CC2)c([N+](=O)[O-])c1,cell number change,,9.29%
Nc1c(-c2ccccc2)c(CN2CCOCC2)nn1-c1cccc([N+](=O)[O-])c1,cell number change,,13%
Oc1ccccc1C=NCC(O)c1ccccc1 (stereo not drawn),cell number change,,6.02%
Cc1ccc(S(=O)(=O)N2CCOCC2)cc1NC(=O)CNCc1ccccc1Cl,cell number change,,24.5%
COc1ccc(S(=O)(=O)N2CCOCC2)cc1NC(=O)Cc1c(F)cccc1Cl,cell number change,,0.94%
Cc1nnc(NC(=O)c2ccc3c(c2)C(=O)N(CCC(C)C)C3=O)s1,cell number change,,-9.37%
COc1ccc2c(c1)C=CC1(O2)N(CCO)c2ccccc2C1(C)C (stereo not drawn),cell number change,,-43.1%
same,AC50,[2],"23.1 µM [falling, single point]"
same,AC50,[1],"16.4 µM [falling, single point]"
Cc1[nH]nc(N)c1-c1ccccc1,cell number change,,15.5%
same,AC50,[1],"29.1 µM [rising, single point]"
CC1CCCCC1NC(=O)c1ccc(-n2cncn2)c([N+](=O)[O-])c1 (stereo not drawn),cell number change,,-32.8%
same,AC50,[2],"2.31 µM [falling, partial curve, poor fit]"
Cc1cc(/C(N)=N/OC(=O)c2cccc(Cl)c2)no1,AC50,[1],"29.1 µM [rising, single point]"
Cc1cccc(NC(=O)c2cc(C)nc3ccccc23)c1,AC50,[1],"0.651 µM [rising, single point]"
CCOc1cc(CNc2ccc(OC)cc2)cc(Br)c1OCC(=O)NC(C)(C)C,cell number change,,25.9%
same,AC50,[2],"0.92 µM [rising, full curve, poor fit]"
same,AC50,[1],"4.61 µM [rising, single point]"
C[C@]12CC[C@H]3[C@@H](CCC4=CC(=O)CC[C@@]43C)[C@@H]1CC[C@@H]2C(=O)CO,cell number change,,12.2%
same,AC50,[2],"0.731 µM [rising, full curve]"
same,AC50,[1],"5.8 µM [rising, partial curve]"
CC(C)NC(=O)c1ccccc1S(=O)c1ccccc1C#N (stereo not drawn),cell number change,,17.4%
same,AC50,[1],"29.1 µM [rising, single point]"
Cc1ccc2cc(CN(Cc3ccco3)C(=O)NCc3ccccc3)c(=O)[nH]c2c1C,cell number change,,-6.42%
same,AC50,[1],"2.06 µM [rising, partial curve]"
FC(F)(F)c1ccc2c(c1)n(Cc1ccccc1)c1[n+]2CCCCC1,cell number change,,24.5%
same,AC50,[1],"0.116 µM [falling, full curve, poor fit]"
Cc1ccc(C)c(C(=O)COC(=O)c2c(-c3ccccc3)noc2C)c1,cell number change,,74.5%
same,AC50,[2],"16.4 µM [rising, partial curve]"
COc1ccc(NC(=O)CSc2nnc(CC(=O)Nc3ccc(F)cc3)n2C)cc1,cell number change,,9.52%
O=Cc1ccc(N2CCCCC2)cc1,cell number change,,8.31%
same,AC50,[1],"0.517 µM [rising, full curve]"
COc1cccc(NC(=O)Cn2c(-c3cncs3)nc3ccccc32)c1,cell number change,,31.1%
same,AC50,[2],"0.461 µM [rising, full curve, poor fit]"
Cn1nc(-c2ccc(Cl)cc2)c2cc(C(=O)NCCCN3CCOCC3)sc21,cell number change,,40.7%
same,AC50,[2],"20.6 µM [rising, single point]"
Cc1sc2nc(C3CC3)nc(SCC(=O)N3c4ccccc4CC3C)c2c1C (stereo not drawn),cell number change,,6.19%
CCOC(=O)c1c(C)[nH]c(C)c1S(=O)(=O)NCCCN1CCOCC1,cell number change,,16.4%
same,AC50,[1],"29.1 µM [rising, partial curve, poor fit]"
COc1ccc(OCC(=O)Nc2c3c(nn2-c2ccc(OC)cc2)CS(=O)(=O)C3)cc1,cell number change,,-28.2%
same,AC50,[1],"20.6 µM [falling, single point]"
Cc1cc(C)c(C(=O)C(C)OC(=O)Cc2n[nH]c(=O)c3ccccc23)cc1C (stereo not drawn),cell number change,,13%
same,AC50,[1],"0.651 µM [rising, full curve]"
O=C(O)Cn1cc2c(n1)CCCCC2,cell number change,,-9.37%
same,AC50,[1],"0.00461 µM [rising, full curve, poor fit]"
CC(C)CNC(=S)NNC(=O)c1ccc2c(c1)OCO2,cell number change,,47.5%
same,AC50,[2],"20.6 µM [rising, partial curve, poor fit]"
same,AC50,[1],"16.4 µM [rising, partial curve, poor fit]"
CNC(=S)N/N=C/c1c(C)nn(-c2ccccc2)c1Cl,cell number change,,3.76%
same,AC50,[1],"0.13 µM [rising, full curve, poor fit]"
CC(C)c1cc(C(=O)N2CCCC(CCC(=O)NCc3ccccc3F)C2)n(C)n1 (stereo not drawn),cell number change,,-22.4%
same,AC50,[1],"8.2 µM [falling, partial curve]"
O=C(c1c(O)c2ccccc2oc1=O)C1CCC1,cell number change,,-17.5%
same,AC50,[1],"29.1 µM [falling, single point]"
Nc1nnnn1/N=C/c1ccco1,cell number change,,7.76%
same,AC50,[1],"6.51 µM [falling, single point]"
CCn1c(COc2ccccc2C)nnc1SCC(=O)Nc1cc(C)on1,cell number change,,-14.2%
same,AC50,[2],"6.51 µM [falling, single point]"
COc1ccc(-n2nc(C(=O)NCC(=O)N3CCN(C)CC3)c3ccccc3c2=O)cc1,cell number change,,4.5%
same,AC50,[1],"29.1 µM [rising, single point]"
O=C(COC(=O)CCC1CCCC1)Nc1ccc(Cl)cn1,cell number change,,41.7%
COC(=O)Cc1cc(=O)oc2cc(O)ccc12,cell number change,,-31.1%
same,AC50,[2],"5.17 µM [falling, full curve, poor fit]"
same,AC50,[1],"5.8 µM [falling, full curve]"
CCC(=O)c1ccc(N2CCN(C(=O)COc3ccccc3F)CC2)c(F)c1,cell number change,,-28.2%
same,AC50,[1],"16.4 µM [falling, single point]"
O=C(NCc1cccc(Cl)c1)C1CCC(=O)N(CC2CCCCC2)C1 (stereo not drawn),cell number change,,28.6%
O=C(OCCOCCN=C1NS(=O)(=O)c2ccccc21)c1ccccc1,cell number change,,21%
CCNC(=S)Nc1nc2c(cc1C(=O)OCC)CCCC2,cell number change,,24.3%
same,AC50,[2],"0.326 µM [rising, partial curve, poor fit]"
same,AC50,[1],"4.61 µM [rising, full curve, poor fit]"
Cc1cc(C)c(N(C(=O)c2csnn2)C(C(=O)NC(C)(C)C)c2ccncc2)c(C)c1 (stereo not drawn),cell number change,,14.9%
same,AC50,[1],"0.082 µM [falling, full curve, poor fit]"
C/C=N/NC(=O)CCNC(=O)c1ccccc1,AC50,[1],"1.16 µM [rising, partial curve, poor fit]"
Cc1ccc(C)c(CSc2nnc([C@@H]3CCCN3)o2)c1,cell number change,,46.2%
same,AC50,[2],"29.1 µM [rising, single point]"

# Laid out differently: results already given.
compound | measurement | setting | value
Cc1cc(-c2n[nH]c(=S)n2-c2ccc(C)c(C)c2)no1 | cell number change |  | 1.01%
CCC(C)NC(=O)CO/N=C/c1ccc(C(=O)OC)cc1 (stereo not drawn) | cell number change |  | 47.5%
Cc1ccc2cc(CN(Cc3ccco3)C(=O)NCc3ccccc3)c(=O)[nH]c2c1C | AC50 | [1] | 2.06 µM [rising, partial curve]
FC(F)(F)c1ccc2c(c1)n(Cc1ccccc1)c1[n+]2CCCCC1 | AC50 | [1] | 0.116 µM [falling, full curve, poor fit]
Cn1nc(-c2ccc(Cl)cc2)c2cc(C(=O)NCCCN3CCOCC3)sc21 | cell number change |  | 40.7%
COc1ccc(-n2nc(C(=O)NCC(=O)N3CCN(C)CC3)c3ccccc3c2=O)cc1 | AC50 | [1] | 29.1 µM [rising, single point]

# 2 entries from above, with tabs.
compound	measurement	setting	value
CCOC(=O)c1c(C)[nH]c(C)c1S(=O)(=O)NCCCN1CCOCC1	AC50	[1]	29.1 µM [rising, partial curve, poor fit]
COc1ccc(OCC(=O)Nc2c3c(nn2-c2ccc(OC)cc2)CS(=O)(=O)C3)cc1	cell number change		-28.2%
